Measurements reported in PubChem BioAssay AID1159584 (Peter MacCallum Cancer Centre, 2016)
The whole screen tested about 18,000 reagents; this is a random part of them. The numbers tell different reagents against one gene apart. Not stated in the record: the amount of reagent, the time to read-out.

Screen: 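Knock-downs that harm CDH1-null cells more than parental MCF10A cells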 (primary screen)
Cells: human MCF10A breast epithelial cells, parental and CDH1-null
Reagents: siRNA against human genes
Read-out: 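ATP luminescence (CellTiter-Glo) viability per line relative to mean mock wells over all plates, and the ratio of CDH1-null to parental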
Scale: CDH1-null / parental viability ratio: higher = CDH1-null cells survive relatively better than parental; CDH1-null viability vs mock: higher = more viable CDH1-null cells; parental viability vs mock: higher = more viable parental cells

The first 3 entries, to show the layout:
no.	gene	reagent	CDH1-null / parental viability ratio	CDH1-null viability vs mock (fraction of mock)	parental viability vs mock (fraction of mock)
1	SLC27A3	1	0.83	0.58	0.7
2	CAPN9	1	1.2	0.77	0.64
3	RXYLT1	1	1.06	0.94	0.89

Results, repeating the preview:
no.	gene	reagent	CDH1-null / parental viability ratio	CDH1-null viability vs mock (fraction of mock)	parental viability vs mock (fraction of mock)
1	SLC27A3	1	0.83	0.58	0.7
2	CAPN9	1	1.2	0.77	0.64
3	RXYLT1	1	1.06	0.94	0.89
4	MMP28	1	1.62	0.94	0.58
5	ALDH16A1	1	1.23	0.79	0.64
6	IDH1	1	1.15	0.83	0.72
7	TOE1	1	1.09	0.74	0.68
8	NLN	1	1.15	0.78	0.68
9	GNPDA1	1	0.98	1.06	1.08
10	METTL4	1	0.83	0.64	0.77
11	CAV2	1	1.58	0.87	0.55
12	ALDH3A1	1	0.93	0.56	0.6
13	CR1	1	1.02	0.88	0.86
14	CAB39L	1	1.03	0.97	0.94
15	VGF	1	0.89	0.7	0.79
16	ADO	1	0.97	0.6	0.62
17	NCDN	1	0.86	0.74	0.86
18	NRAP	1	0.94	0.67	0.71
19	UMPS	1	0.98	0.9	0.92
20	RABAC1	1	0.91	0.4	0.44
21	DEFB127	1	1.1	0.54	0.49
22	RNF17	1	0.72	0.58	0.8
23	MAN2B1	1	0.94	0.6	0.64
24	PACRGL	1	0.98	0.6	0.61
25	TRPT1	1	1.35	0.74	0.55
26	CCDC7	1	1.21	0.97	0.8
27	CCDC7	2	1.23	0.7	0.57
28	GOLGA2	1	0.97	1.02	1.05
